Binding data for two substances are collected here from PMC12807481.

Chains of the proteins cited; added tags and fusions are not shown.
UniProt P63208: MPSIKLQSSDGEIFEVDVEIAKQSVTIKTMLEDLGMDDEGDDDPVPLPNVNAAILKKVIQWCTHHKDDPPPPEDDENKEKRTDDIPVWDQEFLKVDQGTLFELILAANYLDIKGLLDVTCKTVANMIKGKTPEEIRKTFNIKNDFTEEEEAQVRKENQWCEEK
UniProt Q7Z6K1: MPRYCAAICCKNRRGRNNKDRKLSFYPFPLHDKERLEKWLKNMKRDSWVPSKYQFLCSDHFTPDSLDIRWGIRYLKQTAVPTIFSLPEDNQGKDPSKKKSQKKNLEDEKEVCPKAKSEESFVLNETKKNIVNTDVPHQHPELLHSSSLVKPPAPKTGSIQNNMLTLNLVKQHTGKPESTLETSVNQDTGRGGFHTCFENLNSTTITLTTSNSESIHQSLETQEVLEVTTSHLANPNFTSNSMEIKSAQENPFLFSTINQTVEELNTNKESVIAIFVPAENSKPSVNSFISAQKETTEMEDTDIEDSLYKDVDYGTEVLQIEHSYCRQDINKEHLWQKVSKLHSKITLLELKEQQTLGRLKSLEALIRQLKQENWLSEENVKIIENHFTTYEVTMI

No constants are given. Whether binding was seen depends on the method and setting. Binding seen in cells or lysates may run through a third protein. Here binding means that the protein was enriched with, or labelled near, the bait; the list need not be complete. Where a sequence is shown, tags or fusion partners need not be part of it.

The assay addresses T1, FLAG-tagged FBXO11 (UniProt Q86XK2).
T1 sequence: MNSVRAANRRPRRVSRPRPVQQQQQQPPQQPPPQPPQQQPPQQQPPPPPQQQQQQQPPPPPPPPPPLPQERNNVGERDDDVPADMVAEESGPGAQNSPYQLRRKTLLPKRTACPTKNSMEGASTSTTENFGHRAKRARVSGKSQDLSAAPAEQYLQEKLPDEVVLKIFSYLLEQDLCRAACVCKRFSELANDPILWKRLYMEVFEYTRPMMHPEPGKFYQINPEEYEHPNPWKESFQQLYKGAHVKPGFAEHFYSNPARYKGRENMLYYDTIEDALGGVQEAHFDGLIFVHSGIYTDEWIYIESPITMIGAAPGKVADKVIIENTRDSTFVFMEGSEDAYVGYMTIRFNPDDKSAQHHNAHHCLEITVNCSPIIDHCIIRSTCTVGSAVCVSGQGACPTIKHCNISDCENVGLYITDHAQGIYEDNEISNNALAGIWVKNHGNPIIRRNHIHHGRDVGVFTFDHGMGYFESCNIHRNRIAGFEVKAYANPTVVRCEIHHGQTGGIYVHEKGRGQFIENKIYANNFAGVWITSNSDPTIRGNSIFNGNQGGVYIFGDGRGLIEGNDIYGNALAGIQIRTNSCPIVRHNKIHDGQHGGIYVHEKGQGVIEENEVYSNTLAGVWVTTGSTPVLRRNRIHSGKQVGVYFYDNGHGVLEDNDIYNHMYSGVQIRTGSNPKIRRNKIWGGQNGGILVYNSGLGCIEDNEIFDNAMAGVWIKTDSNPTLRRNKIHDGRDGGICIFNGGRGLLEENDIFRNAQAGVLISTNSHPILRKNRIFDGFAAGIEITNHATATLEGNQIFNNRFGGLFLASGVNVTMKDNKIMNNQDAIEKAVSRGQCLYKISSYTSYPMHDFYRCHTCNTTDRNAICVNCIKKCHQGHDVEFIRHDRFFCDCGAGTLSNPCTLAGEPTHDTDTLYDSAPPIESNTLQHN
In words: affinity purification with mass spectrometry; FLAG-FBXO11 immunoprecipitated from K562 cells, coimmunoprecipitating proteins identified by tandem mass spectrometry; two independent experiments, without and with endonuclease treatment.

For the substance “SKP1 (endogenous) (from UniProt P63208 1-163)”, the binding entry is “binds”.
As to “THAP5, transcriptional repressor (endogenous) (from UniProt Q7Z6K1 1-395)”, the binding entry is “binds”.
